Experimental data published in publication PMC10832218.
These are yes or no findings as the source states them, for the method shown. In cells and extracts the contact can be indirect.

Amino acid sequences for entries named in this document (tags omitted).
UniProt Q8CHI8: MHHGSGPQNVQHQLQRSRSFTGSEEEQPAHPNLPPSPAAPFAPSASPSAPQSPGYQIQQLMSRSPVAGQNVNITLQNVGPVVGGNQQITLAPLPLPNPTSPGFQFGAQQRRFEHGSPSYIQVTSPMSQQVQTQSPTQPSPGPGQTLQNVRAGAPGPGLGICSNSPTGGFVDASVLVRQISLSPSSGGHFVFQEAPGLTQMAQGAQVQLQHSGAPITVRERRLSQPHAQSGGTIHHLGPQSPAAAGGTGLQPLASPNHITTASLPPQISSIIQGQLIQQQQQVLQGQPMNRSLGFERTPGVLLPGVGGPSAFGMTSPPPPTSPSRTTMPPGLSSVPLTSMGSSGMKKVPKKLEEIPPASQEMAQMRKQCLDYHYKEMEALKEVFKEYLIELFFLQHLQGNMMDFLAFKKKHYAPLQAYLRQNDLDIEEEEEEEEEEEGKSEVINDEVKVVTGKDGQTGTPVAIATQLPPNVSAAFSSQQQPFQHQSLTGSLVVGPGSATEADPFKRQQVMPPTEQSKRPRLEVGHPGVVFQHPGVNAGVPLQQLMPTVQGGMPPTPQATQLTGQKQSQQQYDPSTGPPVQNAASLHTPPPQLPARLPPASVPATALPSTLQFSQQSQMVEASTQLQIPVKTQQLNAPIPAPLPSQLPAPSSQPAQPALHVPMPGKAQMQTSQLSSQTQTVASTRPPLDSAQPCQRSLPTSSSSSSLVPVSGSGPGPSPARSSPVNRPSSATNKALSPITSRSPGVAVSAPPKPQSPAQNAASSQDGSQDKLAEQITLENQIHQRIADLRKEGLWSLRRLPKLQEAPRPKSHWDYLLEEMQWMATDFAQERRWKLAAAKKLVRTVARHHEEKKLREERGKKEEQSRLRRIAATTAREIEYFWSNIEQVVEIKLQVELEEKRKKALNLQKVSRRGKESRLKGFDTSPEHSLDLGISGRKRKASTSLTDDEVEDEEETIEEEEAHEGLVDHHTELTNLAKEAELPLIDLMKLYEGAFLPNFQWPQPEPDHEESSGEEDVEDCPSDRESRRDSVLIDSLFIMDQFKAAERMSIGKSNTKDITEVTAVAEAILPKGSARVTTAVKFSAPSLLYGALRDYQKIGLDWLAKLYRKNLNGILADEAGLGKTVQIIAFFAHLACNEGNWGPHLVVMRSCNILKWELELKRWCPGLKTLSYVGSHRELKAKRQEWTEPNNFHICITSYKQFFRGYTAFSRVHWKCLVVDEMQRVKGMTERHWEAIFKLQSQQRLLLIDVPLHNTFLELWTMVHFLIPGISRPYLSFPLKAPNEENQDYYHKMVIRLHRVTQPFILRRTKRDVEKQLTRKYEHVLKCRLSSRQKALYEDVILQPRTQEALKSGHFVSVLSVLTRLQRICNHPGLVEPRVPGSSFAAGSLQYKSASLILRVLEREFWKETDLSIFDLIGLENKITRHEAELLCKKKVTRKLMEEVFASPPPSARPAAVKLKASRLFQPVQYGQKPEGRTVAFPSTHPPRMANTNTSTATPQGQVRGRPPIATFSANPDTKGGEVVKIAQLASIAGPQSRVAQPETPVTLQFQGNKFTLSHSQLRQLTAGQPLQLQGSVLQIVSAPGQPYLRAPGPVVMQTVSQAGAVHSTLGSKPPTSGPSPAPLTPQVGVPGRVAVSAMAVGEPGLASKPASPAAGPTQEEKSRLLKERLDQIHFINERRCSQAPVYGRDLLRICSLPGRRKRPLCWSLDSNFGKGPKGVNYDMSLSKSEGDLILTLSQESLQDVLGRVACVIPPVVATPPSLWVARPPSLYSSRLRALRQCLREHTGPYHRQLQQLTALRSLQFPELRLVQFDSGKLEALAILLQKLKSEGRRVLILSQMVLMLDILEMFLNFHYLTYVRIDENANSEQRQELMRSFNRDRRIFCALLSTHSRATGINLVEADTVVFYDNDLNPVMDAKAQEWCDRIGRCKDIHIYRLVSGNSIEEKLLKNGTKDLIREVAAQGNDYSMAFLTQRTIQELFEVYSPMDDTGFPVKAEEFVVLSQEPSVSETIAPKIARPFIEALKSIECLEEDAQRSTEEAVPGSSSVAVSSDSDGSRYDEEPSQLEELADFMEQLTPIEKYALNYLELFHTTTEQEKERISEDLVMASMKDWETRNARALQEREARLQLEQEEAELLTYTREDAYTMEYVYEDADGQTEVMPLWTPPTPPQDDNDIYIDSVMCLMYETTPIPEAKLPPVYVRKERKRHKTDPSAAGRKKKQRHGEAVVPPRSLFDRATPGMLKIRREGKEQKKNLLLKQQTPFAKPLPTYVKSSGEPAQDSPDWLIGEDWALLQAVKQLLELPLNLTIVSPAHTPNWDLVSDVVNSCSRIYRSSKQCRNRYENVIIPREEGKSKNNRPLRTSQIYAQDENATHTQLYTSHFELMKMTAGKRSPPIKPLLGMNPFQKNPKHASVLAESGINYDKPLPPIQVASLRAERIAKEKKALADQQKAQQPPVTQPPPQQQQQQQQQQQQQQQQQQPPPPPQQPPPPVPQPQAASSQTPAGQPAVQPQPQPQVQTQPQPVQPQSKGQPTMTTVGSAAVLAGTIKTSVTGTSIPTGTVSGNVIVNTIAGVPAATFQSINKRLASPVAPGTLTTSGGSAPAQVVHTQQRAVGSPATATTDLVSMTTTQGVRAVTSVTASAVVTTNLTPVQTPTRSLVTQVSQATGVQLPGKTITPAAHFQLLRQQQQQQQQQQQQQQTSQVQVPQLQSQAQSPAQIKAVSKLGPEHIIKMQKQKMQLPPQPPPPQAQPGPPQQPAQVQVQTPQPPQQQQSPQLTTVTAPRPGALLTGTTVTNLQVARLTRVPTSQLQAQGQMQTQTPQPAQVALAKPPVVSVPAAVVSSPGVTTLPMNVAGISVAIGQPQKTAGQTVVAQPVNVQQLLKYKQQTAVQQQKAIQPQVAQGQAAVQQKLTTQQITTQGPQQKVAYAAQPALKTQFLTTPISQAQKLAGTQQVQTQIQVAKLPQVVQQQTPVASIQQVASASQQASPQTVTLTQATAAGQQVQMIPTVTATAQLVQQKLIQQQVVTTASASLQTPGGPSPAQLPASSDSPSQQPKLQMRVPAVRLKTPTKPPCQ

Target: p400 (mouse (endogenous in NIH3T3)) (UniProt Q8CHI8)
Experiment: co-IP; Nuclear Complex Co-IP Kit (Active Motif); 200 ug nuclear extract of NIH3T3 + BORIS (clone#2) cells with 3 ug antibody overnight at 4 C, Protein G beads, low salt and detergent IP buffers; extracts with or without benzonase (125 U/mL, on ice, 90 min); Western blot

binding: no binding
B1: BORIS (Brother of Regulator of Imprinted Sites) (protein, UniProt Q8NI51 1-663)
chain: MAATEISVLSEQFTKIKELELMPEKGLKEEEKDGVCREKDHRSPSELEAERTSGAFQDSVLEEEVELVLAPSEESEKYILTLQTVHFTSEAVELQDMSLLSIQQQEGVQVVVQQPGPGLLWLEEGPRQSLQQCVAISIQQELYSPQEMEVLQFHALEENVMVASEDSKLAVSLAETTGLIKLEEEQEKNQLLAERTKEQLFFVETMSGDERSDEIVLTVSNSNVEEQEDQPTAGQADAEKAKSTKNQRKTKGAKGTFHCDVCMFTSSRMSSFNRHMKTHTSEKPHLCHLCLKTFRTVTLLRNHVNTHTGTRPYKCNDCNMAFVTSGELVRHRRYKHTHEKPFKCSMCKYASVEASKLKRHVRSHTGERPFQCCQCSYASRDTYKLKRHMRTHSGEKPYECHICHTRFTQSGTMKIHILQKHGENVPKYQCPHCATIIARKSDLRVHMRNLHAYSAAELKCRYCSAVFHERYALIQHQKTHKNEKRFKCKHCSYACKQERHMTAHIRTHTGEKPFTCLSCNKCFRQKQLLNAHFRKYHDANFIPTVYKCSKCGKGFSRWINLHRHSEKCGSGEAKSAASGKGRRTRKRKQTILKEATKGQKEAAKGWKEAANGDEAAAEEASTTKGEQFPGEMFPVACRETTARVKEEVDEGVTCEMLLNTMDK
